From patent US9675701B2, “Coloured disinfectant preparation based on bispyridiniumalkane” (L'AIR LIQUIDE, SOCIETE ANONYME POUR L'ETUDE ET …, priority 2014, dated 2017)
At least one compound was matched to its structure with a doubt left.

Test system: S. aureus ATCC 6538
Assay: Method A: remanence effect of the dried preparation on tiles, germ count determination
Assay type: cell-based
Conditions: preliminary experiments with a new type of method
Description: No in-vitro method was hitherto known for being able to rapidly examine (i.e. screen) the potential impairment of the remanent effect of antiseptic active ingredients due to added dyes, and specifically in particular in the presence of large amounts of solvents, such as alcohols. […] 0.2 ml of the test preparation was spread to the edge on a tile measuring 5×5 cm and left to dry optically. Here, solvents evaporate and the antiseptic active ingredient (octenidine was tested) remains on the tile. Then, 0.1 ml of bacteria suspension (test germ S. aureus ATCC 6538, starting germ count of the solution 10^6 CFU/ml, on the tile then 10^5 CFU/ml) is applied to an area of 3×3 cm on the tile. After the corresponding contact time, the tile is transferred to a container filled with glass beads (diameter 3-4 mm) and 10 ml of neutralization solution (TLSH) and shaken for 2 minutes on a horizontal shaker at 200 rpm. Finally, a germ count determination is performed by means of dilution series. The dilution stages 10^0, 10^−1, 10^−2 and 10^−3 are plated out. The agar plates are incubated for 24-48 hours at 36±1° C. The CFU/ml resulting therefrom is used to calculate the logarithmic reduction factor (RF) for the preparations and the water control. A high […] reduction factor means good bactericidal efficacy of the preparation. […]

O=C1OC2(c3ccc(O)cc3Oc3cc(O)ccc32)c2ccccc21 [fluorescein]
remanence effect of octenidine in preparations which comprise the dye: inhibited
